{
  "source": "patent US3953417",
  "about": "(dated 1976)",
  "experiment": "general procedure: solution-phase peptide synthesis; OTcp active ester with HOBt and N-ethylmorpholine; HOBt/dicyclohexylcarbodiimide",
  "conditions": "HCl",
  "data": [
    {"substance": "HCl.H-Glu(OBu^t)-Asp(OBu^t)-Glu(OBu^t)-Asp(OBu^t)-OBu^t", "values": [
      {"measurement": "step yield", "setting": "late stage modification step", "result": 97.5, "unit": "%"}
    ]},
    {"substance": "HCl.H-Glu(OBu^t)-Glu(OBu^t)-Glu(OBu^t)-Glu(OBu^t)-OBu^t", "values": [
      {"measurement": "step yield", "setting": "late stage modification step", "result": 98, "unit": "%"}
    ]},
    {"substance": "Z-Glu(OBu^t)-Glu(OBu^t)-Glu(OBu^t)-Glu(OBu^t)-OBu^t", "values": [
      {"measurement": "step yield", "setting": "coupling step", "result": 86, "unit": "%"}
    ]},
    {"substance": "Z-Glu(OBu^t)-Asp(OBu^t)-Glu(OBu^t)-Asp(OBu^t)-OBu^t", "values": [
      {"measurement": "step yield", "setting": "coupling step", "result": 80, "unit": "%"}
    ]}
  ]
}
